# Literature values in US8222425B2, “Organic compounds and their uses” (Novartis AG, priority 2007, dated 2012).
# Test system: HCV
# Details: ribavirin alone, patients; cited from earlier work
structure (smiles),measurement,value
"NC(=O)c1ncn([C@@H]2O[C@H](CO)[C@@H](O)[C@H]2O)n1 [Ribavirin, 1-β-D-ribofuranosyl-1-1,2,4-triazole-3-caroxamide]",effect on serum levels of HCV-RNA,does not lower serum levels of HCV-RNA
